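Growth of Mycobacterium tuberculosis over 3 days (7H9 medium with glucose and tyloxapol); the read-out is not stated. Tested at 50 µM. The record gives no direction; compounds that gave an IC50 in retests scored well above the rest, so higher reads as more growth inhibition. About 69,000 compounds were tested under these conditions; 1.1% (about 760) showed 50% or more at least once.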

Each number is a percent effect as filed. The controls that fix the scale are not given in the record; negative values are as filed. Compounds were drawn at random from those tested, without regard to their results. Two or more numbers in one place are separate tests of the same structure; such repeats can differ widely.

{"compound": "CCN1CCCC(C)(C(=O)NCCc2n[nH]c(=O)[nH]2)C1", "stereo": "stereo not given", "percent effect": -5.351}
{"compound": "[H][C@@]12CS(=O)(=O)C[C@]1([H])N(Cc1nccn1CC)CCN2Cc1ccc(C)o1", "percent effect": "-2.958 & 1.712"}
{"compound": "CCN(CC1CCOC1)C(=O)c1ccc(N2CCOCC2)c(F)c1", "stereo": "stereo not given", "percent effect": -31.42}
{"compound": "CCN(CC)c1ccc2ccc(C(=O)NC3CC3)cn12", "percent effect": "3.164 & -32.5"}
{"compound": "[H][C@@]12CS(=O)(=O)C[C@]1([H])N(C(=O)c1cn3ccsc3n1)CCN2CC1CC1", "percent effect": "-0.7009 & 4.203"}
{"compound": "CN(C)C(=O)CNC(=O)c1cc2ccccc2nc1N1CCCC1", "percent effect": -17.89}
{"compound": "CS(=O)(=O)N1CCC(Cc2cnc(Br)cn2)CC1", "percent effect": -1.962}
{"compound": "NC(=O)CN1CCCCC1c1ccc(-n2ccnc2)nc1", "stereo": "stereo not given", "percent effect": -18.23}
{"compound": "CC(C)c1n[nH]c(C2CN(C(=O)CCc3cscn3)CCO2)n1", "stereo": "stereo not given", "percent effect": -21.62}
{"compound": "COc1cc(NCc2c(C)noc2C)c(OC)cc1Cl", "percent effect": 12}
{"compound": "CCSc1nnc([C@@H](N)CC(C)C)o1.Cl", "percent effect": "18.47 & 14.08"}
{"compound": "c1coc(-c2nc(CN3CCOC(Cn4cccn4)C3)cs2)c1", "stereo": "stereo not given", "percent effect": -53.09}
{"compound": "CN(C)CCCNc1ncnc2cccc(F)c12", "percent effect": 6.055}
{"compound": "CS(=O)(=O)N1CCC(C(=O)NC(Cc2ccsc2)c2ccccn2)CC1", "stereo": "stereo not given", "percent effect": 3.32}
{"compound": "COc1ccccc1CCNC(=O)CC1(Cn2cnnn2)CCCCC1", "percent effect": 15.54}
{"compound": "COCC1CN(S(=O)(=O)c2ccccc2)Cc2ncnn2C1", "stereo": "stereo not given", "percent effect": 15.09}
{"compound": "O=C(NC1CC1)C1CCc2nnc(-c3cccnc3)n21", "stereo": "stereo not given", "percent effect": 4.328}
{"compound": "COc1ccccc1CC(C)N(C)CCS(C)(=O)=O", "stereo": "stereo not given", "percent effect": "0.5652 & -14.32"}
{"compound": "CCOc1c(F)cccc1C(=O)N(C)CCn1cccn1", "percent effect": "3.592 & 10.6"}
{"compound": "COc1ccncc1NCc1ccsc1", "percent effect": -3.489}
{"compound": "Cc1[nH]ccc1C(=O)N[C@H]1CN(S(C)(=O)=O)C[C@@H]1C1CC1", "percent effect": "13.51 & 5.476"}
{"compound": "CCSc1ncc(-c2cc(C3CCC3)nc(N)c2C#N)cn1", "percent effect": -9.349}
{"compound": "O=C(CCS(=O)(=O)C1CCCC1)NCCc1cccc(O)c1", "percent effect": 11.2}
{"compound": "Cc1cc2nc(CO[C@H]3CN(CC4CC4)C[C@H]3F)[nH]c2cc1C", "percent effect": "35.24 & 6.653"}
{"compound": "OC1(CNc2ccc(F)cc2)CCNCC1", "percent effect": "2.91 & 12.54"}
{"compound": "Cc1cc(C2CCCN2C(=O)c2cnn(C)c2)on1", "stereo": "stereo not given", "percent effect": "-10.7 & -19.26"}
{"compound": "COCC(=O)N1CCCC1c1nccnc1Nc1nc(C)cs1", "stereo": "stereo not given", "percent effect": -3.838}
{"compound": "CC(CS(C)(=O)=O)N(C(=O)CCc1cccc(F)c1)C1CC1", "stereo": "stereo not given", "percent effect": 13.58}
{"compound": "CS(=O)(=O)CCN1CC(c2ccccc2)(c2ccccc2)CCC1=O", "percent effect": -57.25}
{"compound": "O=C(O)C(F)(F)F.O=C(O)C(F)(F)F.[H][C@]12CCN(c3ncc(C)cn3)[C@@]1([H])CC[C@H](COCc1ccccn1)O2", "percent effect": -3.118}
{"compound": "Cc1ncccc1OC1(C(=O)NCCCN2CCOCC2)CCNCC1", "percent effect": -16.66}
{"compound": "CC(=O)Nc1nc(C(=O)NC(C)c2ccc3c(c2)OCCO3)cs1", "stereo": "stereo not given", "percent effect": 22.65}
{"compound": "CC(C)n1nc(Cn2cccn2)c2c1CN(CC1CCOC1)C2.O=C(O)C(F)(F)F", "stereo": "stereo not given", "percent effect": 9.301}
{"compound": "Cc1[nH]ncc1CCCNC(=O)Nc1ccccc1", "percent effect": "-3.195 & -4.381"}
{"compound": "Cc1nnsc1C(=O)N1CCCCC1c1cc2nc(C)c(C)c(O)n2n1", "stereo": "stereo not given", "percent effect": 25.33}

For reference, 4 entries once more:

* CS(=O)(=O)N1CCC(C(=O)NC(Cc2ccsc2)c2ccccn2)CC1 (stereo not given) | 3.32%
* [H][C@@]12CS(=O)(=O)C[C@]1([H])N(C(=O)c1cn3ccsc3n1)CCN2CC1CC1 | -0.7009% & 4.203%
* Cc1cc(C2CCCN2C(=O)c2cnn(C)c2)on1 (stereo not given) | -10.7% & -19.26%
* Cc1cc2nc(CO[C@H]3CN(CC4CC4)C[C@H]3F)[nH]c2cc1C | 35.24% & 6.653%

Measurements from “University of Dundee, Small-Polar-MMV Screening Library” (2021), ChEMBL document CHEMBL3988442.